## Primary screen of a compound library

By UniProt entry, the sequences of proteins in these tests, tags left out.
UniProt P9WPC5, whole entry: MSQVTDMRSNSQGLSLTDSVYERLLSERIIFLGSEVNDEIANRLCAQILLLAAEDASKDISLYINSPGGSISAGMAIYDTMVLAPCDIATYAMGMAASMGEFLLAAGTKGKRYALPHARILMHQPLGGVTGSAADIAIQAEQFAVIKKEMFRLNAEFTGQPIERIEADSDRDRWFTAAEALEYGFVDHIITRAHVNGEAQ
UniProt P9WPC3, whole entry partner: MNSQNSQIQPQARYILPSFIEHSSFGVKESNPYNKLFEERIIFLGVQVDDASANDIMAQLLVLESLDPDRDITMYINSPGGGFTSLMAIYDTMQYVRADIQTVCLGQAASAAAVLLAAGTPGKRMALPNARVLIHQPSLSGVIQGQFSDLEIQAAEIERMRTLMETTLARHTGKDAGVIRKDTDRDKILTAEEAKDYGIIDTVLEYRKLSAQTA
UniProt P9WNZ1, whole entry: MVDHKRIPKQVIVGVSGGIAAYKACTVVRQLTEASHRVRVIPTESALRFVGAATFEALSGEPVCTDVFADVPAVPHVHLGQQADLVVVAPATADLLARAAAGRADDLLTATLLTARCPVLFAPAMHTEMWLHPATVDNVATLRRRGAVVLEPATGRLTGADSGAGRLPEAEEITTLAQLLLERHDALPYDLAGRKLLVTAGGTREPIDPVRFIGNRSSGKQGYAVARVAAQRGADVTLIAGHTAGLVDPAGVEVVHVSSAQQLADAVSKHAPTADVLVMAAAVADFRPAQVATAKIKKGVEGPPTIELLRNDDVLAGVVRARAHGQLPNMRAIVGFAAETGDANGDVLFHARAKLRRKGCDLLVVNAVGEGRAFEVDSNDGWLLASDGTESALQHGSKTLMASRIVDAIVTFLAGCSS

ClpP1P2: 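Protease assay of ClpP1P2, read by the AMC dye that it sets free. Target: ClpP1P2, Mycobacterium tuberculosis (UniProt P9WPC5 and UniProt P9WPC3). Compounds at 50 µM. Direction is inferred from only a few compounds that gave an IC50; most scored high, so higher reads as stronger inhibition. Most other retested compounds had strongly negative values. Size under these conditions: about 69,000 compounds, about 10 of them at 50% or above in at least one test.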
CoaBC: 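Coenzyme A biosynthesis protein CoaBC, Mycobacterium tuberculosis (UniProt P9WNZ1). Enzyme assay of CoaBC with a phosphate dye (Biomol Green) read at 650 nm. Concentration: 30 µM. Higher reads as stronger inhibition, judged from the few compounds that gave an IC50. Most strong results did not repeat in a second test. Size under these conditions: about 67,000 compounds, about 40 of them at 50% or above in at least one test.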
Toxoplasma: 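Assay of Toxoplasma gondii numbers, read through their beta-galactosidase reporter with a colour substrate. Concentration: 10 µM. The record gives no direction; the compounds picked for IC50 retests had high values, so higher reads as fewer parasites. About 67,000 compounds were tested under these conditions; 0.38% (about 260) showed 50% or more at least once.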

The filed quantity is “Percent Effect” (%). The controls that fix the scale are not given in the record; negative values are as filed. This is an unselected part of the compounds tested. A dash means the value is not listed here; it may have been measured.

SMILES	ClpP1P2	CoaBC	Toxoplasma
Cc1sc(NC(=O)CN2CCCC(c3ncc[nH]3)C2)c(C)c1C (centres unmarked)	-5.748	2.314	4.369
CCc1ccc(C(=O)O)cc1S(=O)(=O)Nc1ccc2c(c1)OCCO2	1.237	-1.842	-23.87
O=c1c(NCCc2ccc(O)cc2)c(NCc2ccco2)c1=O	-3.466	-2.152	4.26
CCOC(=O)C1CCCN(Cc2cc(C#N)n(C)c2C)C1 (centres unmarked)	-12.78	-3.753	-26.28
O=C(CCNC(=O)c1ccoc1)Nc1ccc(F)cc1F	-1.404	15.33	2.432
CN(C)C1CCN(C(=O)c2ccnn2-c2ccc3ccccn23)CC1	-3.671	2.716	-
O=C(NS(=O)(=O)c1cnn(-c2ccccc2F)c1)c1ccco1	-7.806	-3.212	2.179
CCOC1COC2(CCN(Cc3ccc(C)cc3)CC2)C1 (centres unmarked)	1.251	3.475	-
O=C(O)C(F)(F)F.[H][C@@]12CCCO[C@]1([H])[C@H](NC(=O)c1cscn1)CN2Cc1cccs1	-	-	-0.169
CN1CC[C@H]2OCC[C@@H](C(=O)NCc3ccco3)[C@@H]2C1	15.32	3.448	-
CSCC1CCCN1CCc1ccncc1 (centres unmarked)	-11.77	2.689	5.274
COc1cc(COCC2CCN(Cc3ccccn3)CC2)cc(OC)c1	-0.8361	-6.561	-
CC(C)(C)c1nc(CN(Cc2cccs2)CC2CCCO2)no1 (centres unmarked)	17.58	9.542	10.84
CCC1=NN2C(=N)/C(=C\c3cccn3-c3ccc(Cl)cc3)C(=O)N=C2S1	17.82	1.976	12.15
CC(NC(=O)NCC1(c2ccc(F)cc2)CCC1)c1nncn1C (centres unmarked)	9.092	7.846	3.076
COCCN1C(=O)CC[C@]12CC[C@@H](NC(=O)c1cnccn1)CC2	4.847	-9.138	5.51
CN(CC(=O)N(C)C1CCCCC1)C1CCc2ccccc21 (centres unmarked)	14.94	1.33	1.27
CCCOC(=O)N1CCc2cccc(S(=O)(=O)N3CCOCC3)c2C1	-17.67	0.3699	-2.737
CCS(=O)(=O)N1C[C@@H](O)[C@H](N2CCc3ccccc3C2)C1	-4.302	-5.521	12.04
CN(Cc1ccc(-n2cccn2)cc1)c1cc(N)nc(N)n1	-4.92	-5.242	10.27
CC(C)N1CCC2(CCCNC2)C1=O (centres unmarked)	-2.479	3.732	-
CCS(=O)(=O)NCCCNC1CSCCc2ccccc21 (centres unmarked)	4.705	3.902	-2.271
O=C(O)c1cc(NS(=O)(=O)c2cccc(Cl)c2F)ccc1Cl	-0.9792	0	0.9529
CCc1nnc(CN2CC(n3cccn3)C2)o1	-6.858	1.392	-21.02
O=C(c1ccc2c(c1)COC2)N1CCC(Nc2ccccc2)CC1	-1.275	2.651	0.2118
O=C(c1ccc2[nH]ccc2c1)N1Cc2nc(CN3CCCCC3)oc2C1	-2.625	11.67	-
Cc1cc(C)n(CC2CCCCN2CC(=O)Nc2cccnc2)n1 (centres unmarked)	-19.41	10.27	-4.846
O=S1(=O)c2ccccc2C2(CCN(Cc3ccccc3)C2)N1CC1CC1 (centres unmarked)	-1.952	9.326	-
O=C(c1ccco1)N1Cc2nccn2CC(Cn2ncccc2=O)C1 (centres unmarked)	-15.81	-3.083	1.433
CCCc1cc(CN(C)C2CCSCC2)n[nH]1	-19.29	2.439	12.23
CCCC(=O)NC(C(=O)OC)c1cc(F)ccc1F (centres unmarked)	-20.63	1.673	-13.51
CC(C)(C)c1cc(C[C@H]2CNCC[C@H]2CC(=O)N2CCCCC2)no1	-23.61	-18.71	9.975
O=C(O)C(F)(F)F.[H][C@@]12CCN(C3CCC3)[C@]1([H])CC[C@H](C(=O)NCc1ccco1)O2	-	-	-11.31
CCC(CC)Cn1ncc(N2CCOCC2)cc1=O	-8.299	12.09	5.326
O=C(NCCC1Cc2ccccc2C1)N1CCCC(O)C1 (centres unmarked)	5.267	-3.44	-23.71
COCC(NC(=O)c1cc(C)n(C)n1)c1cccc(C(F)(F)F)c1 (centres unmarked)	-5.408	3.553	8.336
Cc1ccc(-c2ccsc2C(=O)NC2CCS(=O)(=O)C2)cc1 (centres unmarked)	6.241	-0.1972	-14.23
COc1ccc([C@@H]2CN(c3cc(C(=O)O)ccn3)C[C@H]2N(C)C)cc1	-0.6876	-	-2.397

For reference, 3 entries once more:

SMILES,ClpP1P2,CoaBC,Toxoplasma
O=C(c1ccc2c(c1)COC2)N1CCC(Nc2ccccc2)CC1,-1.275,2.651,0.2118
CCCOC(=O)N1CCc2cccc(S(=O)(=O)N3CCOCC3)c2C1,-17.67,0.3699,-2.737
CCc1nnc(CN2CC(n3cccn3)C2)o1,-6.858,1.392,-21.02

Data taken from ChEMBL document CHEMBL3988442, “University of Dundee, Small-Polar-MMV Screening Library” (2021).